Hit rate of the full screen: of about 400,000 compounds, about 13,000 (3.2%) were called active. Inconclusive means that the source gave no clear call. Such entries were picked first, then a sample of the others. Calls follow the shape of the dose curve; as a rule, active = well fitted cell-killing curve with a large enough effect; inconclusive = small, poorly fitted or top-dose-only effect, or effect the other way; inactive = flat fitted curve, though single readings scatter. Potencies beside an inconclusive call are fits to weak or partial responses and may not hold up.
test: qHTS assay for MDR1-selective chemotherapeutics: Primary screen using the drug-selected MDR subline cells KB-V1; settings: KB-V1 MDR cells viability, CellTiter-Glo, 72 h; series mostly up to 46.1 µM; also: nearly all actives have a fitted effect of over 60% in size
Summary of the method: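 In this primary screen, KB-V1 cells overexpressing P-gp are incubated with library compounds (lowest to highest concentration) for 72 h at 37 degrees C before a luminescent ATP viability read.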
Potency is read from the fitted curve at half-maximal effect.

Row | SMILES | Potency
1 | CNc1ncc(Cc2ccccc2)s1 | inactive
2 | COc1ccc(C(=O)CCC(=O)Nc2ccc(N3CCCCC3)cc2)cc1OC | inactive
3 | CN(C(=O)CN1C(=O)NC(c2ccccc2)(c2ccccc2)C1=O)C1CCS(=O)(=O)C1 (centres undefined) | inactive
4 | COc1ccc(-c2ccnc(SCC(=O)c3ccc(Cl)cc3)n2)cc1 | inconclusive: 16.4 µM [cytotoxic, single point]
5 | O=S(=O)(c1ccc(SCc2ccccc2)nc1)N1CCCC1 | inconclusive: 29.1 µM [cytotoxic, single point]
6 | COc1ccccc1NC(=S)N(CCCN1CCOCC1)Cc1cn(C)c2ccccc12 | inactive
7 | CCN(C(=O)COC(=O)c1cc(-c2ccccc2)nc2c1c(C)nn2-c1ccccc1)C1CCS(=O)(=O)C1 (centres undefined) | inactive
8 | C[C@@H]1C(=O)O[C@H](C)[C@H]1C[C@@H](O)[C@](C)(O)C1CC[C@@]2(O)C3=CC(=O)[C@@H]4C[C@@H](O)[C@@H](O)C[C@]4(C)C3CC[C@]12C (some centres undefined) | inconclusive: 0.651 µM [rising, full curve]
9 | CCOC(=O)c1c(NC(=S)NCCc2ccccc2)sc2c1CC(C(C)C)OC2 (centres undefined) | active: 20.6 µM
10 | CS(=O)(=O)NCCCc1ccccc1 | inconclusive: 25.9 µM [rising, partial curve, poor fit]
11 | O=C(N1CCN(c2ccc(F)cc2)CC1)C1(c2cccs2)CCOCC1 | active: 23.1 µM
12 | COc1cc(/C=N/NC(=O)c2cccnc2)cc(Br)c1O | inconclusive: 10.3 µM [rising, partial curve, poor fit]
13 | CCCN(CCC)C(=O)c1c(NC(=O)CC)sc2c1CCCCC2 | inconclusive: 23.1 µM [cytotoxic, partial curve]
14 | CC(=O)NCCNc1nc(NC(C)C)nc2cc(-c3ccccc3)sc12 | inactive
15 | COc1ccc(NC(=O)Nc2cnccn2)c(OC)c1 | active: 5.8 µM
16 | CN1CCC(N(C)C(=S)Nc2ccc(SC(F)F)cc2)CC1 | inconclusive: 25.9 µM [cytotoxic, partial curve, poor fit]
17 | COc1cccc(NC(=O)CSc2nc(O)c(C/C=C/c3ccccc3)c(=O)[nH]2)c1 | inactive
18 | COc1ccc(NS(=O)(=O)c2cc(NC(=O)c3cnc(C)cn3)ccc2N2CCCC2)cc1 | active: 4.61 µM
19 | O=[N+]([O-])c1cccc(C=NNc2ccccc2)c1 | inactive
20 | Cc1cc(C)nc(N/N=C/c2ccccc2Cl)n1 | inactive
21 | Cc1cc(S(=O)(=O)Nc2cccc(-c3ccc(N4CCOCC4)nn3)c2)c(C)cc1Cl | inconclusive: 18.4 µM [cytotoxic, single point]
22 | CC1CC(C)CN(C(=S)Nc2ccc(OC(F)F)cc2)C1 (centres undefined) | active: 20.6 µM
23 | Cc1nc2c3ccccc3nc(SCC(=O)N3CC(C)CC(C)C3)n2n1 (centres undefined) | active: 0.58 µM
24 | CC(=O)Nc1ccc(OCC(O)Cn2ccnc2)cc1 (centres undefined) | inconclusive: 9.2 µM [rising, partial curve, poor fit]
25 | NC(=O)c1c(NC(=S)Nc2ccc(F)cc2)sc2c1CCCC2 | inconclusive: 29.1 µM [cytotoxic, single point]

Reformatted as labelled records: part of the list above
COc1ccc(NC(=O)Nc2cnccn2)c(OC)c1
  Potency: active: 5.8 µM
COc1cccc(NC(=O)CSc2nc(O)c(C/C=C/c3ccccc3)c(=O)[nH]2)c1
  Potency: inactive

Next structures follow:

Row | SMILES | Potency
26 | O=C(NCC1COc2ccccc2O1)c1ccc(Cl)cc1 (centres undefined) | inconclusive: 18.4 µM [cytotoxic, single point]
27 | Cc1cc(Cl)c(S(=O)(=O)Nc2ccccn2)cc1OCC(N)=O | inconclusive: 20.6 µM [rising, partial curve, poor fit]
28 | CN1c2ccccc2Oc2c(c(=O)n(C)c(=O)n2C)C1c1cccc([N+](=O)[O-])c1 (centres undefined) | inconclusive: 10.3 µM [cytotoxic, partial curve]
29 | Cc1ccc(-n2ncc(C(=O)Nc3cc(Cl)ccc3C)c2C2CCNCC2)cc1C | inconclusive: 7.31 µM [rising, partial curve, poor fit]
30 | O=C(O)c1ccc(NC2=Nc3cccc4cccc2c34)cc1 | active: 14.6 µM
31 | CC(C)COC(=O)N1CCCCC1c1cc(C(=O)Nc2ccc3c(c2)OCO3)no1 (centres undefined) | inactive
32 | Cc1cc(C)c2oc(C(=O)Nc3c(C(=O)c4ccc(F)cc4)oc4ccccc34)cc(=O)c2c1 | inactive
33 | CCc1ccc(CNC(=O)Cc2ccc(NC(=O)C3=C(C)OCCS3)cc2)cc1 | active: 1.16 µM
34 | Cn1cccc1/C=N/NC(N)=S | inactive
35 | Cc1ccc(S(=O)(=O)N(CC(=O)NCCSC2CCCCC2)c2ccccc2F)cc1 | inconclusive: 18.4 µM [cytotoxic, partial curve, poor fit]
36 | O=C(NCc1ccncc1)C1CCCN(S(=O)(=O)c2ccc(Br)cc2)C1 (centres undefined) | inconclusive: 23.1 µM [cytotoxic, single point]
37 | COc1ccc2c(c1)c(=O)c(C(=O)c1ccccc1)cn2Cc1ccc(C)cc1 | active: 18.4 µM
38 | Nc1nc(NC(=O)/C=C/c2ccccc2)nn1-c1ccccc1 | inconclusive: 18.4 µM [cytotoxic, single point]
39 | O=C(CN1C(=O)CSc2ccccc21)NCCC1=CCCCC1 | inconclusive: 16.4 µM [rising, partial curve, poor fit]
40 | O=C(NC1CCCCCC1)C(=S)NCCc1ccccc1 | inactive
41 | Cc1ccc(NC(=O)CCS(=O)(=O)c2ccc(Br)s2)cc1 | inconclusive: 32.6 µM [cytotoxic, single point]
42 | CC(Sc1nc2c(N)ncnc2n1CCOc1ccccc1)C(=O)O (centres undefined) | inconclusive: 29.1 µM [rising, single point]
43 | CC(Sc1nnc(-c2ccco2)n1-c1ccccc1)C(=O)NCC1CCCO1 (centres undefined) | active: 20.6 µM
44 | CCN1CCN(S(=O)(=O)c2ccc(Oc3ccccc3OC)cc2)CC1 | inconclusive: 20.6 µM [cytotoxic, single point]
45 | CN=c1scc(C)n1/N=C/c1cc(Br)c(O)c(OC)c1 | inactive
46 | COCCn1c(C)cc(C(=O)COC(=O)/C=C/c2c(C)nn(C3CCS(=O)(=O)C3)c2Cl)c1C (centres undefined) | inconclusive: 9.2 µM [cytotoxic, partial curve]
47 | CCOC(=O)c1ccc(NC(=S)N(CCCN2CCCC2)Cc2cccs2)cc1 | inconclusive: 5.8 µM [cytotoxic, partial curve]
48 | O=C(NC1CC2CCCC(C1)N2S(=O)(=O)c1ccccc1)c1ccccc1 (centres undefined) | inconclusive: 5.8 µM [cytotoxic, partial curve, poor fit]
49 | Clc1ccc(-c2nc(-c3ccncc3)no2)c(Cl)c1 | inconclusive: 18.4 µM [cytotoxic, single point]
50 | COc1ccc2c(C)c(CC(=O)NCCc3ccccc3)c(=O)oc2c1OC | inactive

Row | SMILES | Potency
51 | COc1ccccc1N1CCN(C(c2cc3ccc(C)cc3[nH]c2=O)c2nnnn2C2CCCC2)CC1 (centres undefined) | inconclusive: 23.1 µM [cytotoxic, partial curve]
52 | COc1ccc(C)cc1/C=C/C(=O)N1CCN(S(=O)(=O)c2cccs2)CC1 | inactive
53 | CCCCN(CCCC)c1nc(OC)nc(-n2nnc(C(C)=O)c2C)n1 | inactive
54 | CCOc1ccc(NC(=O)Cn2nnc(C(=O)OC)c2C(=O)OC)cc1 | inactive
55 | C=CCn1c(C)cc(C(=O)CSc2nnc(NCc3ccccc3)s2)c1C | active: 10.3 µM
56 | Cc1nc(S(=O)(=O)c2ccc(Cl)cc2)nc2c1CCC2 | active: 14.6 µM
57 | COc1cccc(C(=O)C2=NN(C(C)=O)CC2c2ccco2)c1 (centres undefined) | inconclusive: 29.1 µM [cytotoxic, single point]
58 | CC(=O)c1c(C)[n+]([O-])c2ccc3c(non3O)c12 | inconclusive: 0.517 µM [rising, full curve]
59 | COc1cc(C(=O)N[C@H](C(=O)OCC(=O)NC2CCCCCC2)C(C)C)cc(OC)c1OC | inconclusive: 29.1 µM [rising, single point]
60 | CCc1c(N)nc(N)nc1Nc1ccccc1Cl | inconclusive: 29.1 µM [cytotoxic, single point]
61 | COc1ccccc1C(=O)NNC(=O)c1csc(N2CCOCC2)n1 | inconclusive: 20.6 µM [cytotoxic, single point]
62 | CCN1CCN(C(=O)C2COc3ccccc3O2)CC1 (centres undefined) | inconclusive: 9.2 µM [cytotoxic, single point]
63 | CC1(C(=O)NCc2ccco2)Cc2c(-c3ccc4c(c3)OCO4)ccnc2O1 (centres undefined) | active: 2.59 µM
64 | CSc1nc(Cl)c(Cc2ccc(OCC(C)C)cc2)c(N2CCOCC2)n1 | inconclusive: 23.1 µM [cytotoxic, single point]
65 | Cc1ccc2c(c1)C(c1ccc(F)cc1)N(C(=O)C(C)C)CC(=O)N2 (centres undefined) | inactive
66 | Cc1cc(C)n2nc(-c3ccccc3)cc2n1 | inconclusive: 29.1 µM [cytotoxic, single point]
67 | CCc1nnc(NC(=O)c2nc(S(=O)(=O)Cc3ccccc3)ncc2Cl)s1 | inconclusive: 14.6 µM [cytotoxic, partial curve, poor fit]
68 | O=S(=O)(Nc1cccc(-c2ccc(N3CCOCC3)nn2)c1)c1ccc(Cl)c(Cl)c1 | inconclusive: 11.6 µM [cytotoxic, single point]
69 | CCOc1ccccc1N1C(=O)c2ccc(C(=O)O)cc2C1=O | inconclusive: 18.4 µM [rising, single point]
70 | COc1cccc(Cn2c(NCC(C)C)nc3c2c(=O)n(C)c(=O)n3C)c1 | active: 3.26 µM
71 | CCCNC(=O)C1(C)CCCN(Cc2ccccc2-c2ccccc2)C1 (centres undefined) | inactive
72 | CC(C)Oc1cccc(C(=O)C2CCCN(C(=O)c3ccnn3C)C2)c1 (centres undefined) | inconclusive: 16.4 µM [cytotoxic, single point]
73 | CCCCSCc1nc2nc(Cl)c(Cl)nc2[nH]1 | inconclusive: 18.4 µM [cytotoxic, single point]
74 | O=C(CSc1nnc(-c2cccnc2)n1Cc1ccco1)c1ccccc1 | inconclusive: 0.58 µM [cytotoxic, full curve, poor fit]

Retrieved by compound from above, 4 records:
Row | SMILES | Potency
53 | CCCCN(CCCC)c1nc(OC)nc(-n2nnc(C(C)=O)c2C)n1 | inactive
67 | CCc1nnc(NC(=O)c2nc(S(=O)(=O)Cc3ccccc3)ncc2Cl)s1 | inconclusive: 14.6 µM [cytotoxic, partial curve, poor fit]
63 | CC1(C(=O)NCc2ccco2)Cc2c(-c3ccc4c(c3)OCO4)ccnc2O1 (centres undefined) | active: 2.59 µM
69 | CCOc1ccccc1N1C(=O)c2ccc(C(=O)O)cc2C1=O | inconclusive: 18.4 µM [rising, single point]
